The assay is described as follows: qHTS Assay for Modulators of Lamin A Splicing. The conditions noted are these: HeLa LMNA splicing GFP/RFP minigene ratio, 48 h. The method, boiled down:
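S3 HeLa cells stably expressing lamin A-EGFP splicing minigene plus DsRed2, 600 cells/well, 48 h compound exposure at 37C. Laser-scanning cytometry; analysed as GFP (500-530 nm)/RFP (575-640 nm) total intensity ratio; 0.5% DMSO vehicle.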
(In general: Quantitative high-throughput screening tests each substance at several concentrations.)

Where [1] appears, read: measured here: GFP splicing reporter channel.
The mark [2] stands for this setting: measured here: RFP viability control channel.

The other results are listed elsewhere or left out. These are further read-outs of the screen, such as a control signal, another cell line or another target. No call is given for them. Compounds called inactive in the main read-out are mostly missing here. Potencies come from curve fits of mixed quality, noted in brackets.

For orientation: AC50 means the midpoint of the concentration-response curve, whichever way the signal moves. With `COc1ccc(O[C@H]2C=C[C@@H](c3ccccc3)O[C@@H]2COC(=O)CC/C(C)=N/O[C@@H](C)c2cn([C@H](CO)Cc3ccccc3)nn2)cc1`, the AC50 by setting is: under setting [1], 10 µM [rising, partial curve]; under setting [2], 14.1 µM [rising, partial curve]. On to `CCOC(=O)COc1ccc2ccccc2c1/C=C/[N+](=O)[O-]`, for which, under setting [2], the AC50 is 11.2 µM [rising, partial curve]. In the case of `CC(=O)c1sc(-c2cccc(Cl)c2)nc1C`, under setting [1], the AC50 was 0.0158 µM [falling, full curve]. As for `Cc1ccc(S(=O)(=O)c2ccc(Cl)cc2)cc1S(=O)(=O)N1CCN(C)CC1`, under setting [2], the AC50 was 12.6 µM [rising, single point]. For `CC(C)CCNC(=O)Cn1c(-c2cccs2)cc2cc(F)ccc21`, the AC50 under setting [2] is 0.02 µM [rising, full curve, poor fit]. With `Cc1cccc(-n2cc(-c3ccccc3)c3c(=O)[nH]cnc32)c1`, the AC50 under setting [2] is 17.8 µM [rising, single point]. For the compound `CC1(C)OC(=O)C(=NNc2ccc(O)cc2)C(=O)O1`, the AC50 reads like this: under setting [1], 28.2 µM [rising, single point]; under setting [2], 15.8 µM [rising, partial curve].

Turning to `CCN1C(=O)N(C)[C@@H](c2ccccc2)C(C(=O)OC)=C1C`, the AC50 by setting is: under setting [1], 1.58 µM [falling, partial curve]; under setting [2], 0.398 µM [falling, full curve, poor fit].

On to `FC(F)(F)c1cccc(NC(=S)NNC(=S)NCc2ccccc2)c1`, for which the AC50 was 20 µM [rising, single point] under setting [1] and 35.5 µM [rising, single point] under setting [2]. Take `CC(C)C(OC(=O)c1cc2occc2n1C)C(=O)NCc1ccc2c(c1)OCO2` (centres undefined): the AC50 under setting [2] was 35.5 µM [rising, single point]. `CC(C)(CS)C(=O)N1CCC[C@H]1C(=O)O`: the AC50 is 0.224 µM [falling, full curve] under setting [1] and 0.398 µM [falling, full curve, poor fit] under setting [2]. On to `Cc1ccc2nc(-c3cccc(NS(C)(=O)=O)c3)cc(-c3ccccc3)c2c1`, for which the AC50 is 11.2 µM [falling, partial curve] under setting [1] and 11.2 µM [falling, partial curve] under setting [2]. Take `C/C(=N\NC(=O)CNc1ccccc1)c1ccccc1`: the AC50 under setting [1] is 0.0251 µM [rising, full curve, poor fit]. With `Cc1ccc2oc(C(=O)NCc3ccc4c(c3)OCO4)c(C)c2c1`, the AC50 is, setting by setting: under setting [1], 31.6 µM [rising, single point]; under setting [2], 35.5 µM [rising, single point]. As to `Cc1ccc(CNC(=O)c2ccc(CN3CC(=O)N4CCCCC4C3=O)cc2)cc1` (centres undefined), the AC50 under setting [2] was 0.0282 µM [falling, full curve, poor fit]. As for `COC(=O)c1ccc(OS(=O)(=O)c2ccc(NC(C)=O)cc2)cc1`, the AC50 under setting [2] is 35.5 µM [rising, single point]. On the same count and under the same terms, as for `CCOC(=O)N1CCN(c2ccc(S(=O)(=O)N(Cc3ccccc3)Cc3ccccc3)cn2)CC1`, the figure is 3.55 µM [rising, full curve, poor fit]; as for `O=C(Nc1cccc(-c2cn3ccccc3n2)c1)c1cccc(Cl)c1`, 35.5 µM [falling, single point]. Turning to `COc1ccc(N2CCN(C(=O)c3cc(N4C(=O)C5C6CCC(C6)C5C4=O)ccc3Cl)CC2)cc1` (centres undefined), the AC50 under setting [1] was 10 µM [rising, partial curve, poor fit] and the AC50 under setting [2] is 14.1 µM [rising, partial curve]. In the case of `O=C1c2ccccc2-c2cccc(C(=O)N3CCN(C(=O)c4ccccc4)CC3)c21`, the AC50 under setting [1] is 0.0251 µM [falling, full curve, poor fit] and the AC50 under setting [2] is 6.31 µM [falling, full curve, poor fit]. Turning to `Nc1cc(Cl)ccc1C(=O)OCC(=O)NC1CCCCC1`, the AC50 runs as follows: under setting [1], 25.1 µM [falling, partial curve]; under setting [2], 31.6 µM [falling, partial curve]. On to `O=C(CSc1ccccn1)N1CCc2ccccc21`, for which the AC50 under setting [2] was 0.00447 µM [falling, full curve, poor fit].

Turning to `CC(=O)O[C@]1(C(C)=O)CC[C@H]2[C@@H]3C[C@H](C)C4=CC(=O)CC[C@]4(C)[C@H]3CC[C@@]21C`, the concentration at half-maximal activity (AC50) reads like this: under setting [1], 22.4 µM [rising, single point]; under setting [2], 35.5 µM [rising, single point]. On to `CCNC(=O)/N=C1/NC(=O)C(C(C)C)O1` (centres undefined), for which the AC50 under setting [2] was 3.98 µM [rising, single point].

In the case of `CCN(CC(=O)NC1CCS(=O)(=O)C1)S(=O)(=O)c1cccc(C(C)=O)c1` (centres undefined), the AC50 under setting [1] is 8.91 µM [falling, partial curve, poor fit]. `O=C(O)c1cc(-c2ccccc2)nc2ccccc12`: the AC50 under setting [2] is 7.94 µM [falling, partial curve, poor fit].

As to `COc1ccc(NC(=O)c2cc3sccc3n2Cc2ccc(F)cc2)cc1OC`, the AC50 under setting [1] is 35.5 µM [falling, single point] and the AC50 under setting [2] was 35.5 µM [falling, single point]. In the case of `Cc1nc(NCc2ccc3c(c2)OCO3)c2oc3ccccc3c2n1`, the AC50 was 10 µM [rising, partial curve] under setting [1] and 15.8 µM [rising, partial curve] under setting [2]. Take `COc1ccccc1-c1c(-c2ccc(OCC(=O)NN)cc2O)n[nH]c1C(F)(F)F`: the AC50 is 12.6 µM [rising, partial curve] under setting [1] and 28.2 µM [rising, single point] under setting [2]. As to `CCOC(=O)Cn1c2c(c(=N)c3c1CCC3)CCC2`, the half-maximal activity concentration (AC50) is 15.8 µM [rising, partial curve] under setting [1] and 11.2 µM [rising, partial curve] under setting [2].

For the compound `COc1ccc(Nc2ncnc3sc(-c4ccccc4)cc23)cc1OC`, the AC50 under setting [1] was 35.5 µM [rising, single point] and the AC50 under setting [2] is 35.5 µM [rising, single point].

For `CCOC(=O)c1[nH]cnc1C(=O)Nc1ccc(F)cc1`, the AC50 under setting [1] was 35.5 µM [falling, single point]. `COc1ccccc1CC(=O)N1CCN(c2cccc(C(F)(F)F)c2)CC1`: the concentration at half-maximal activity (AC50) is 0.501 µM [rising, full curve, poor fit] under setting [1] and 8.91 µM [rising, partial curve] under setting [2]. As to `Cc1ccccc1OC1=NS(=O)(=O)c2ccccc21`, the AC50 under setting [2] was 0.0141 µM [falling, full curve]. Turning to `CCNc1ncc2nc(-c3cc(F)cc(F)c3)c(=O)n(CCc3ccccc3)c2n1`, the AC50 runs as follows: under setting [1], 14.1 µM [falling, partial curve]; under setting [2], 15.8 µM [falling, partial curve]. Turning to `CN(C)c1ccc(NS(=O)(=O)c2cccc(Cl)c2)cc1`, the concentration at half-maximal activity (AC50) under setting [2] is 8.91 µM [rising, partial curve].

Take `Cc1cc(C)n(CCc2nc(-c3cc4ccccc4o3)cs2)n1`: the AC50 is 3.98 µM [rising, single point] under setting [1] and 11.2 µM [rising, partial curve] under setting [2].

As for `CCc1nnc(NC(=O)CSc2nccn2-c2cc(C)cc(C)c2)s1`, the AC50 under setting [2] is 31.6 µM [rising, single point]. On to `O=C1/C(=C/c2ccccc2)Oc2cc(OC(=O)N3CCOCC3)ccc21`, for which the AC50 reads like this: under setting [1], 1.78 µM [rising, partial curve, poor fit]; under setting [2], 0.316 µM [rising, full curve, poor fit]. Turning to `O=C(Nc1nc(-c2ccc(F)c(F)c2)cs1)c1ccc(OCC2CCCO2)cc1` (centres undefined), the AC50 by setting is: under setting [1], 5.62 µM [rising, partial curve]; under setting [2], 5.62 µM [rising, partial curve].

As for `COc1ccc(CNC(=O)C(C(C)C)N2Cc3ccccc3C2=O)cc1` (centres undefined), the AC50 under setting [1] was 0.0355 µM [rising, full curve, poor fit] and the AC50 under setting [2] was 0.0355 µM [rising, full curve, poor fit]. With `Cc1ccc(CC(=O)NCc2ccc(F)cc2)cc1`, the AC50 under setting [2] is 2.82 µM [rising, full curve]. Turning to `Cc1ccc(C)c(NC(=O)c2cc(S(=O)(=O)NCCC3=CCCCC3)ccc2F)c1`, the AC50 under setting [1] was 0.0126 µM [falling, full curve, poor fit] and the half-maximal activity concentration (AC50) under setting [2] was 1.41 µM [falling, full curve, poor fit]. With `O=C(CN1CCN(c2ccccn2)CC1)N1c2ccccc2CCc2ccccc21`, the AC50 under setting [2] was 12.6 µM [rising, partial curve, poor fit].

In the case of `O=C(N/N=C/c1ccc(Br)o1)c1cc([N+](=O)[O-])cc([N+](=O)[O-])c1`, the AC50 is, setting by setting: under setting [1], 0.00501 µM [falling, full curve, poor fit]; under setting [2], 0.00501 µM [falling, full curve, poor fit]. With `CCC(=O)Nc1cc(ON=C(C)C)cc([N+](=O)[O-])c1`, the AC50 under setting [1] was 12.6 µM [rising, single point]. As to `O=C(C1CCCN(S(=O)(=O)c2cnc[nH]2)C1)N1CCN(c2ccc(Cl)cc2)CC1` (centres undefined), the AC50 under setting [1] was 2.82 µM [rising, partial curve] and the concentration at half-maximal activity (AC50) under setting [2] is 15.8 µM [rising, partial curve]. For the compound `Cc1ccc(NC(=O)CN(C)S(=O)(=O)c2cccc3nsnc23)cc1C`, the AC50 under setting [2] was 31.6 µM [rising, single point]. For `Cc1cccc(CNc2ccnc(-c3cccc(C#N)c3)n2)c1`, the AC50 under setting [1] was 12.6 µM [falling, partial curve] and the AC50 under setting [2] was 17.8 µM [falling, partial curve]. Regarding `Cc1cccc(-n2nnnc2S(C)(=O)=O)c1`, the AC50 reads like this: under setting [1], 1.41 µM [falling, full curve, poor fit]; under setting [2], 7.94 µM [falling, partial curve, poor fit].

As for `CCOc1ccc(-c2cc(CCCC(=O)N3CCN(c4ccc(OC)cc4)CC3)no2)cc1`, the AC50 by setting is: under setting [1], 11.2 µM [rising, single point]; under setting [2], 14.1 µM [rising, partial curve].
